Laboratory results as given in patent publication US9254290B2, “Method for screening diabetes treating agent” (GWANGJU INSTITUTE OF SCIENCE AND TECHNOLOGY, priority 2010, dated 2016).
At least one structure is not confirmed: it was looked up by name or label, or the drawing left a doubt.

Experiments:
[1] = tested on: 3T3-L1 adipocytes; experiment: 2-NBDG uptake in insulin-responsive cell lines, 96-well; assay type: cell-based, murine; conditions: rosiglitazone treatment for 24 h
Experimental: Three cell lines were chosen to test if NBDG can be used to detect insulin-stimulated glucose uptake in a 96 well plate culture format, which is more suitable for cell-based screening to identify novel insulin mimetic compounds. The cell lines chosen were Huh7 hepatocytes, C2C12 myoblasts and 3T3-L1 pre-adipocytes, which represent the major body tissue types that are sensitive to the action of insulin (liver, muscle and fat). 10^4 cells/well were seeded in a black, 96 well tissue culture plate (BD Falcon, NJ, USA). C2C12 myoblasts and 3T3-L1 adipocytes were induced to undergo differentiation into myotubes and adipocytes, respectively, to compare the NDBG signal in proliferating and differentiated cells. NBDG uptake was measured following treatment with 10 nM or 100 nM insulin, and 1 μM or 10 μM rosiglitazone (an insulin-sensitizing agent), using a fluorescent microplate reader (SpectraMAX GeminiXS and SoftMax Pro V5 software, Molecular Devices, CA, USA). Cells were cultured in serum-free low glucose culture media for 3 h before the addition of insulin.

[2] = tested on: 3T3-L1 adipocytes; experiment: 6-NBDG uptake screening in 3T3-L1 adipocytes, 96-well, fluorescent microplate reader; assay type: cell-based, murine; conditions: 1 μM rosiglitazone; 100 nM insulin
Experimental: 3T3-L1 murine fibroblasts were maintained in proliferation media, consisting of DMEM supplemented with 10% FBS, 50 units/mL penicillin and 50 μg/mL streptomycin. 3T3-L1 fibroblasts were induced to differentiate into adipocytes as follows: 48 h postconfluent cells (designated day 0) were cultured in DMEM supplemented 10% FBS, 0.5 mM 3-isobutyl-1-methyl-xanthine, 2 μg/ml dexamethasone, 1 μg/ml insulin, 50 units/mL penicillin and 50 μg/mL streptomycin for 2 days. Every 2 days thereafter, the cells were incubated with fresh DMEM supplemented with 10% FBS and 1 μg/ml insulin. 3T3-L1 adipocytes were used for experiments 8 days after the induction of differentiation.
Three cell lines were chosen to test if NBDG can be used to detect insulin-stimulated glucose uptake in a 96 well plate culture format, which is more suitable for cell-based screening to identify novel insulin mimetic compounds. The cell lines chosen were Huh7 hepatocytes, C2C12 myoblasts and 3T3-L1 pre-adipocytes, which represent the major body tissue types that are sensitive to the action of insulin (liver, muscle and fat). […] NBDG uptake was measured following treatment with 10 nM or 100 nM insulin, and 1 μM or 10 μM rosiglitazone (an insulin-sensitizing agent), using a fluorescent microplate reader (SpectraMAX GeminiXS and SoftMax Pro V5 software, Molecular Devices, CA, USA). […]

CN(CCOc1ccc(CC2SC(=O)NC2=O)cc1)c1ccccn1 (centres unmarked) [rosiglitazone, reference compound]
effect on insulin-stimulated 2-NBDG uptake [1]: increased the degree of insulin-stimulated 2-NBDG uptake | sensitivity of 6-NBDG uptake in adipocytes to the agent [2]: sensitive
